In US20130309184A1, “1,3-DIOXAN-5-ONE COMPOUNDS” (MERCK PATENT GMBH, priority 2011, published 2013):

Tested on: human stratum corneum
Assay: Skin colouring test
[1] = dyed skin stored in water for one week

SMILES: CCCCN(CCCC)c1ccc(/C=C2\OC(C)(OCC)O/C(=C\c3ccc(N(CCCC)CCCC)cc3)C2=O)cc1 (stereo not shown) [Example 8, (4Z,6Z)-4,6-bis[[(4-dibutylamino)phenyl]methylene]-2-ethoxy-2-methyl-1,3-dioxan-5-one]
- colour of the piece of skin after incubation (0.6% solution, 48 h, tetrahydrofuran/ethylene glycol/phosphate buffer pH6=50/47/3): intense orange-red colour
- visual colour impression after storage in water [1]: fully retained
- washing-out of the colour [1]: No noticeable washing-out
- change in colour after simulated sunlight compared with sample stored in the dark (solar simulator (Atlas CPS+), twice for one hour, 500 Wm2): no visually perceptible change in colour
